Values joined by “and” are separate entries in the source; they are usually repeats but may differ in a detail not shown here. Equal entries are not always repeated. Structures can show the parent of a compound that is named as a salt. ± gives the standard deviation of the averaged measurements. This is one part of the list. Many values rest on one well or one pass, so single values are uncertain.
System: RAW 264.7
Assay: cell viability (MTT) relative to vehicle control; higher = more viable cells
Details: stimulus: HMGB1 5 ug/ml, 18 h
[1] = compound concentration: 1 ug/ml

SMILES	cell viability (compound concentration: 3 uM)	cell viability [1] [%]
C=CCN1CCc2c(cc(O)c(O)c2Cl)C(c2ccccc2)C1 (racemic) [(±)-Chloro-APB hydrobromide]	98.2%	–
CCc1c2c(nc3ccc(OC(=O)N4CCC(N5CCCCC5)CC4)cc13)-c1cc3c(c(=O)n1C2)COC(=O)[C@]3(O)CC [IRINOTECAN HCl )trihydrate)]	94.6%	–
CCc1c2c(nc3ccc(OC(=O)N4CCC(N5CCCCC5)CC4)cc13)-c1cc3c(c(=O)n1C2)COC(=O)[C@]3(O)CC [Irinotecan Hydrochloride]	85.2%	–
C[C@H]1[C@H](NC(=O)/C(=N\OC(C)(C)C(=O)O)c2csc(N)n2)C(=O)N1S(=O)(=O)O	103 ± 6.5%	–
C[C@H]1[C@H](NC(=O)/C(=N\OC(C)(C)C(=O)O)c2csc(N)n2)C(=O)N1S(=O)(=O)O [Aztreonam]	89.8 ± 1.6%	–
CNCCC=C1c2ccccc2CCc2ccccc21 [Nortriptyline hydrochloride]	105 ± 1%	–
CNCCC=C1c2ccccc2CCc2ccccc21	104%	–
O=c1onc2n1-c1cc(Br)ccc1OC2	103%	–
Cc1c(Cl)cccc1Nc1ncccc1C(=O)O [Clonixin Lysinate]	108%	–
CC(C)(O/N=C(\C(=O)N[C@@H]1C(=O)N2C(C(=O)[O-])=C(C[n+]3ccccc3)CS[C@H]12)c1csc(N)n1)C(=O)O [Ceftazidime pentahydrate]	106%	–
CC(C)(O/N=C(\C(=O)N[C@@H]1C(=O)N2C(C(=O)[O-])=C(C[n+]3ccccc3)CS[C@H]12)c1csc(N)n1)C(=O)O [Ceftazidime]	87.2%	–
CC(C)(O/N=C(\C(=O)N[C@@H]1C(=O)N2C(C(=O)[O-])=C(C[n+]3ccccc3)CS[C@H]12)c1csc(N)n1)C(=O)O	96.7%	–
C=C1/C(=C\C=C2/CCC[C@]3(C)[C@@H]([C@H](C)CCCC(C)(C)O)CC[C@@H]23)C[C@@H](O)C[C@@H]1O	98.1%	–
C=C1/C(=C\C=C2/CCC[C@]3(C)[C@@H]([C@H](C)CCCC(C)(C)O)CC[C@@H]23)C[C@@H](O)C[C@@H]1O [Calcitriol]	96.1%	–
Cc1ccc(/C(=C\CN2CCCC2)c2ccccn2)cc1	106%	–
Cc1ccc(/C(=C\CN2CCCC2)c2ccccn2)cc1 [Triprolidine hydrochloride]	106 ± 5.5%	–
NC(=O)c1ncn([C@@H]2O[C@H](CO)[C@@H](O)[C@H]2O)c1O	109%	–
NC(=O)c1ncn([C@@H]2O[C@H](CO)[C@@H](O)[C@H]2O)c1O [Mizoribine]	107%	–
O=C1C=CC(=O)c2c1ccc1c2ccc2ccccc21 [Chrysene-1,4-quinone]	99.5%	–
O=C(N/N=C/c1ccc([N+](=O)[O-])o1)c1ccc(O)cc1	100%	–
O=C(N/N=C/c1ccc([N+](=O)[O-])o1)c1ccc(O)cc1 [Nifuroxazide]	78%	–
Nc1ncnc2c1ncn2[C@@H]1O[C@H](COP(=O)(O)CP(=O)(O)OP(=O)(O)O)[C@H](O)C1O (stereo partly drawn) [alpha,beta-Methylene adenosine 5'-triphosphate dilithium]	103%	–
CN1CCN(C(c2ccccc2)c2ccc(Cl)cc2)CC1 (stereo not drawn) [Chlorcyclizine hydrochloride]	107%	–

As a short view, part of the list above:
SMILES	cell viability (compound concentration: 3 uM)	cell viability [1] [%]
C=C1/C(=C\C=C2/CCC[C@]3(C)[C@@H]([C@H](C)CCCC(C)(C)O)CC[C@@H]23)C[C@@H](O)C[C@@H]1O	98.1%	–
C=C1/C(=C\C=C2/CCC[C@]3(C)[C@@H]([C@H](C)CCCC(C)(C)O)CC[C@@H]23)C[C@@H](O)C[C@@H]1O [Calcitriol]	96.1%	–

Following part:

SMILES	cell viability (compound concentration: 3 uM)	cell viability [1] [%]
CN1CCN(C(c2ccccc2)c2ccc(Cl)cc2)CC1 (stereo not drawn)	112%	–
CN(N=O)C(=O)N[C@@H](C=O)[C@@H](O)[C@H](O)[C@H](O)CO [Streptozotocin]	132%	–
Cn1cc(C2=C(c3ccc(Cl)cc3Cl)C(=O)NC2=O)c2ccccc21	102%	–
CC(=O)N[C@H]1[C@H]([C@H](O)[C@H](O)CO)OC(C(=O)O)=C[C@@H]1O [N-Acetyl-2,3-dehydro-2-deoxyneuraminic acid]	115%	–
Nc1ncnc2c1ncn2[C@@H]1O[C@H](COC(=O)CCC(=O)O)[C@@H](O)[C@H]1O [Adenosine 5'-succinate]	–	103
CC(=O)Nc1c(I)c(NC(C)=O)c(I)c(C(=O)O)c1I	110%	–
CCc1cc(C(N)=S)ccn1 [Ethionamide]	78.1%	–
CCc1cc(C(N)=S)ccn1	110%	–
Cc1ccc(C(=O)Nc2ccc(S(=O)(=O)O)c3cc(S(=O)(=O)O)cc(S(=O)(=O)O)c23)cc1NC(=O)c1cccc(NC(=O)Nc2cccc(C(=O)Nc3cc(C(=O)Nc4ccc(S(=O)(=O)O)c5cc(S(=O)(=O)O)cc(S(=O)(=O)O)c45)ccc3C)c2)c1 [Suramin]	120%	–
Cc1ccc(C(=O)Nc2ccc(S(=O)(=O)O)c3cc(S(=O)(=O)O)cc(S(=O)(=O)O)c23)cc1NC(=O)c1cccc(NC(=O)Nc2cccc(C(=O)Nc3cc(C(=O)Nc4ccc(S(=O)(=O)O)c5cc(S(=O)(=O)O)cc(S(=O)(=O)O)c45)ccc3C)c2)c1	102.1 ± 0.69%	–
Cc1ccc(C(=O)Nc2ccc(S(=O)(=O)O)c3cc(S(=O)(=O)O)cc(S(=O)(=O)O)c23)cc1NC(=O)c1cccc(NC(=O)Nc2cccc(C(=O)Nc3cc(C(=O)Nc4ccc(S(=O)(=O)O)c5cc(S(=O)(=O)O)cc(S(=O)(=O)O)c45)ccc3C)c2)c1 [Suramin sodium salt]	119%	–
CCC(=O)[C@@]1(C)[C@H](C)C[C@H]2[C@@H]3CCC4=CC(=O)C=C[C@]4(C)[C@H]3[C@@H](O)C[C@@]21C [Rimexolone]	96.1%	–
CC(=O)Nc1ccc(S(=O)(=O)Nc2ccc([N+](=O)[O-])cc2)cc1	103%	–
CC#CCOC(=O)c1c(C)nc2sc3c(c2c1N)CCC(O)C3 (stereo not drawn)	84.3%	–
O=C([O-])CC(O)(CC(=O)[O-])C(=O)[O-].[Fe+3] [Ferric citrate]	–	95.1
CC[C@]12CCCN3CCc4c(n(c5ccccc45)C(=O)C1)[C@@H]32 [Eburnamonine (-)]	107%	–
CC[C@]12CCCN3CCc4c(n(c5ccccc45)C(=O)C1)[C@@H]32	111%	–
CCn1cc(C(=O)O)c(=O)c2cc(F)c(N3CCN(C)CC3)cc21 [Pefloxacine]	108 ± 12%	–
CCn1cc(C(=O)O)c(=O)c2cc(F)c(N3CCN(C)CC3)cc21	90% and 106%	–
CN=C(N)NCCC[C@H](N)C(=O)O [L-Ornithine, N5-[imino(methylamino)methyl]-[CAS]]	101%	–
CCCCCCCCCCC(C)(C)C(=O)Nc1c(OC)cc(OC)cc1OC	111%	–
Cn1c(=O)c2[nH]c(-c3ccc(S(=O)(=O)O)cc3)nc2n(C)c1=O [8-(p-Sulfophenyl)theophylline]	93.8%	–
C[C@@H]1O[C@@H]1P(=O)(O)O	105%	–

Exported bar-delimited: entries from further up.
SMILES | cell viability (compound concentration: 3 uM) | cell viability [1] [%]
CNCCC=C1c2ccccc2CCc2ccccc21 [Nortriptyline hydrochloride] | 105 ± 1% | –
Cc1c(Cl)cccc1Nc1ncccc1C(=O)O [Clonixin Lysinate] | 108% | –
O=C(N/N=C/c1ccc([N+](=O)[O-])o1)c1ccc(O)cc1 | 100% | –
CN1CCN(C(c2ccccc2)c2ccc(Cl)cc2)CC1 (stereo not drawn) | 112% | –
CCCCCCCCCCC(C)(C)C(=O)Nc1c(OC)cc(OC)cc1OC | 111% | –

Additional records.

SMILES	cell viability (compound concentration: 3 uM)	cell viability [1] [%]
C[C@@H]1O[C@@H]1P(=O)(O)O [Phosphomycin disodium]	106%	–
C[C@@H]1CN(c2c(F)c(N)c3c(=O)c(C(=O)O)cn(C4CC4)c3c2F)C[C@H](C)N1 [Sparfloxacin]	100 ± 13%	–
O[C@H]1[C@H](O)[C@@H](O)[C@@H]2O[C@@H]2[C@@H]1O (racemic) [Conduritol B epoxide]	97%	–
Cc1ccc(S(=O)(=O)NCl)cc1	103%	–
C[C@]12C=CC(=O)C=C1CC[C@@H]1C2=CC[C@]2(C)[C@@H](C(=O)CN3CCN(c4cc(N5CCCC5)nc(N5CCCC5)n4)CC3)CC[C@@H]12	122%	–
C[C@]12C=CC(=O)C=C1CC[C@@H]1[C@@H]2C(=O)C[C@@]2(C)[C@H]1CC[C@]2(O)C(=O)CO [Prednisone]	104 ± 4.9%	–
C[C@]12C=CC(=O)C=C1CC[C@@H]1[C@@H]2C(=O)C[C@@]2(C)[C@H]1CC[C@]2(O)C(=O)CO	102%	–
Nc1ncnc2nc(-c3ccc(N4CCOCC4)nc3)cc(-c3cccc(Br)c3)c12 [ABT-702 dihydrochloride]	102%	–
CCOC(=O)CCC(=O)O[C@H]1[C@H](O[C@@H]2[C@@H](C)[C@H](O[C@H]3C[C@@](C)(OC)[C@@H](O)[C@H](C)O3)[C@@H](C)C(=O)O[C@H](CC)[C@@](C)(O)[C@H](O)[C@@H](C)C(=O)[C@H](C)C[C@@]2(C)O)O[C@H](C)C[C@@H]1N(C)C [erythromycin ethylsuccinate]	–	105
CCOC(=O)CCC(=O)O[C@H]1[C@H](O[C@@H]2[C@@H](C)[C@H](O[C@H]3C[C@@](C)(OC)[C@@H](O)[C@H](C)O3)[C@@H](C)C(=O)O[C@H](CC)[C@@](C)(O)[C@H](O)[C@@H](C)C(=O)[C@H](C)C[C@@]2(C)O)O[C@H](C)C[C@@H]1N(C)C	107%	–
COc1ccc2oc(-c3ccc(O)cc3)cc(=O)c2c1	–	80.1
CN1CCN(C2=Nc3ccccc3Sc3ccc(Cl)cc32)CC1 [Clothiapine]	95%	–
CCC1=C[C@@H]2CN(C1)Cc1c([nH]c3ccccc13)[C@@](C(=O)OC)(c1cc3c(cc1OC)N(C)[C@H]1[C@@](O)(C(=O)OC)[C@H](OC(C)=O)[C@]4(CC)C=CCN5CC[C@]31[C@@H]54)C2 [Vinorelbine]	100%	–
CC(C)CN(C[C@@H](O)[C@H](Cc1ccccc1)NC(=O)O[C@H]1CCOC1)S(=O)(=O)c1ccc(N)cc1 [Amprenavir]	101%	–
CNC(=C[N+](=O)[O-])NCCSCc1csc(CN(C)C)n1 [Nizatidine]	116%	–
CNC(=C[N+](=O)[O-])NCCSCc1csc(CN(C)C)n1	102 ± 3.9%	–
O=C(O)C1=CCNCC1 [Isoguvacine hydrochloride]	104%	–
COc1cc(C)nc(-n2nc(C)cc2OC)n1	95.8%	–
COc1cc(C)nc(-n2nc(C)cc2OC)n1 [Epirizole]	93.1%	–
CS(=O)(=O)Nc1ccc([N+](=O)[O-])cc1Oc1ccccc1	102%	–
CS(=O)(=O)Nc1ccc([N+](=O)[O-])cc1Oc1ccccc1 [Nimesulide]	104 ± 13%	–
NC(=O)c1cc[n+](CC2=C(C(=O)O)N3C(=O)[C@@H](NC(=O)C(c4ccccc4)S(=O)(=O)[O-])[C@H]3SC2)cc1 (stereo partly drawn) [Cefsulodin sodium salt hydrate]	109%	–
